PubChem BioAssay AID1259424, University of Nebraska Medical Center, 2018
This is a random part of about 14,000 reagents tested. 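Higher correlation or smaller distance means closer resemblance to KSR1 loss; control wells, including KSR1 knockdowns, recur on many plates.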 Not stated in the record: the time to read-out.

Screen: 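Rank knockdowns across the genome by resemblance to the KSR1 depletion profile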 (primary screen)
Cells: human HCT116 colon cancer cells
Reagents: siRNA pool against human genes, 50 nM
Measured: 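Log2 levels of six mRNAs (branched-DNA multiplex), adjusted by two reference genes and the non-targeting median, then scored against the average KSR1 knockdown pattern as Pearson r and euclidean distance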
Reading the numbers: mean correlation with KSR1 profile and KSR1 correlation: higher = expression change more like KSR1 knockdown; mean distance from KSR1 profile: higher = expression change less like KSR1 knockdown

| gene | mean correlation with KSR1 profile | mean distance from KSR1 profile | KSR1 correlation, replicate 1 | KSR1 correlation, replicate 2 | KSR1 correlation, replicate 3 |
| --- | --- | --- | --- | --- | --- |
| CARD14 (caspase recruitment domain family member 14) | -0.221 | 3.6 | 0.127 | -0.492 | -0.357 |
| GIPC1 (GIPC PDZ domain containing family member 1) | 0.837 | 0.868 | 0.788 | 0.928 | 0.882 |
| LPAR1 (lysophosphatidic acid receptor 1) | 0.93 | 1.18 | 0.945 | 0.923 | 0.796 |
| TJP2 (tight junction protein 2) | -0.228 | 3.27 | 0.171 | -0.417 | -0.621 |
| CLK3 (CDC like kinase 3) | 0.318 | 2.5 | 0.338 | 0.412 | 0.0849 |
| THY1 (Thy-1 cell surface antigen) | -0.614 | 3.32 | -0.588 | -0.56 | -0.779 |
| ABCA12 (ATP binding cassette subfamily A member 12) | -0.54 | 2.35 | -0.369 | -0.485 | -0.427 |
| PAFAH1B3 | -0.133 | 2.45 | -0.167 | -0.11 | -0.204 |
| AAMP (angio associated migratory cell protein) | 0.58 | 3 | 0.633 | 0.728 | 0.463 |
| HLA-G (major histocompatibility complex, class I, G) | -0.116 | 1.52 | 0.0712 | -0.323 | -0.284 |
| NMBR (neuromedin B receptor) | 0.751 | 1.34 | 0.836 | 0.724 | 0.707 |
| SEMA3E (semaphorin 3E) | -0.654 | 1.27 | -0.203 | -0.461 | -0.167 |
| DVL1 (dishevelled segment polarity protein 1) | 0.679 | 0.792 | 0.661 | 0.491 | 0.456 |
| NUCB2 (nucleobindin 2) | 0.134 | 1.68 | 0.0604 | 0.284 | -0.444 |
| ATF7IP2 (activating transcription factor 7 interacting protein 2) | -0.00719 | 3.1 | -0.0585 | -0.166 | 0.0666 |
| KLF5 (KLF transcription factor 5) | -0.0497 | 1.64 | 0.571 | 0.0717 | -0.338 |
| PTGES (prostaglandin E synthase) | -0.616 | 2.6 | -0.64 | -0.794 | -0.458 |
| CDCP1 (CUB domain containing protein 1) | -0.667 | 2.58 | -0.743 | -0.67 | -0.693 |
| CERK (ceramide kinase) | 0.533 | 1.45 | 0.506 | 0.26 | 0.557 |
| ENC1 (ectodermal-neural cortex 1) | 0.285 | 1.47 | 0.264 | 0.0814 | 0.165 |
| INPP4A (inositol polyphosphate-4-phosphatase type I A) | -0.461 | 3.58 | -0.463 | -0.565 | -0.589 |
| PTPN3 (protein tyrosine phosphatase non-receptor type 3) | -0.465 | 1.46 | -0.0685 | -0.645 | -0.46 |
| SENP2 (SUMO specific peptidase 2) | -0.292 | 2.54 | -0.354 | -0.128 | -0.152 |
| HSPB3 (heat shock protein family B (small) member 3) | -0.366 | 3.49 | -0.237 | -0.617 | -0.364 |
| PSENEN (presenilin enhancer, gamma-secretase subunit) | 0.805 | 1.79 | 0.733 | 0.856 | 0.814 |
| GATAD2A (GATA zinc finger domain containing 2A) | -0.675 | 1.72 | -0.611 | -0.643 | -0.586 |
| NCOR2 (nuclear receptor corepressor 2) | 0.966 | 0.972 | 0.977 | 0.974 | 0.882 |
| FGF13 (fibroblast growth factor 13) | 0.702 | 0.704 | 0.816 | 0.496 | 0.665 |
| CYCS (cytochrome c, somatic) | -0.382 | 2.07 | -0.451 | -0.522 | -0.469 |
| NUBPL (NUBP iron-sulfur cluster assembly factor, mitochondrial) | 0.9 | 0.823 | 0.525 | 0.926 | 0.81 |
| FLAD1 (flavin adenine dinucleotide synthetase 1) | 0.0727 | 1.62 | -0.487 | 0.175 | -0.0203 |
| SLC22A7 | -0.392 | 3.22 | -0.0202 | -0.58 | -0.528 |
| NUP54 (nucleoporin 54) | -0.213 | 2.05 | -0.46 | -0.29 | -0.0852 |
| IFI27L2 (interferon alpha inducible protein 27 like 2) | 0.319 | 1.76 | 0.181 | 0.313 | 0.239 |

Sorted by “mean correlation with KSR1 profile” (highest first): some entries from above
| gene | mean correlation with KSR1 profile | mean distance from KSR1 profile | KSR1 correlation, replicate 1 | KSR1 correlation, replicate 2 | KSR1 correlation, replicate 3 |
| --- | --- | --- | --- | --- | --- |
| NMBR (neuromedin B receptor) | 0.751 | 1.34 | 0.836 | 0.724 | 0.707 |
| DVL1 (dishevelled segment polarity protein 1) | 0.679 | 0.792 | 0.661 | 0.491 | 0.456 |
| SEMA3E (semaphorin 3E) | -0.654 | 1.27 | -0.203 | -0.461 | -0.167 |
